From paper PMC8469697
No constants are given. Whether binding was seen depends on the method and setting. Binding seen in cells or lysates may run through a third protein. Sequences can lack the tags named with a protein.

Amino acid sequences for entries named in this document (tags omitted).
UniProt P32121: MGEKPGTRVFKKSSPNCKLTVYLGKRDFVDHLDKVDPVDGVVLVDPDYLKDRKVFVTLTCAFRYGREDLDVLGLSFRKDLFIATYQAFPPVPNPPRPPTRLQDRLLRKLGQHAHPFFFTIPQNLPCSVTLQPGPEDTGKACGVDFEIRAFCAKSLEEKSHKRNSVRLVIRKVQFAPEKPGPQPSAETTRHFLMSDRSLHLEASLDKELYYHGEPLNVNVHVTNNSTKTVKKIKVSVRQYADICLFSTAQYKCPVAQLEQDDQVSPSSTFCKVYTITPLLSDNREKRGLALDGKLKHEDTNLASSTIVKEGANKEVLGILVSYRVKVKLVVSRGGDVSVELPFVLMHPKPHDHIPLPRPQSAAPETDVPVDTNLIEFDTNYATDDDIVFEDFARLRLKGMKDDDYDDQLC

Molecular target: T1, Follicle-stimulating hormone receptor C-terminally fused with donor Rluc8 (UniProt P23945)
T1 sequence: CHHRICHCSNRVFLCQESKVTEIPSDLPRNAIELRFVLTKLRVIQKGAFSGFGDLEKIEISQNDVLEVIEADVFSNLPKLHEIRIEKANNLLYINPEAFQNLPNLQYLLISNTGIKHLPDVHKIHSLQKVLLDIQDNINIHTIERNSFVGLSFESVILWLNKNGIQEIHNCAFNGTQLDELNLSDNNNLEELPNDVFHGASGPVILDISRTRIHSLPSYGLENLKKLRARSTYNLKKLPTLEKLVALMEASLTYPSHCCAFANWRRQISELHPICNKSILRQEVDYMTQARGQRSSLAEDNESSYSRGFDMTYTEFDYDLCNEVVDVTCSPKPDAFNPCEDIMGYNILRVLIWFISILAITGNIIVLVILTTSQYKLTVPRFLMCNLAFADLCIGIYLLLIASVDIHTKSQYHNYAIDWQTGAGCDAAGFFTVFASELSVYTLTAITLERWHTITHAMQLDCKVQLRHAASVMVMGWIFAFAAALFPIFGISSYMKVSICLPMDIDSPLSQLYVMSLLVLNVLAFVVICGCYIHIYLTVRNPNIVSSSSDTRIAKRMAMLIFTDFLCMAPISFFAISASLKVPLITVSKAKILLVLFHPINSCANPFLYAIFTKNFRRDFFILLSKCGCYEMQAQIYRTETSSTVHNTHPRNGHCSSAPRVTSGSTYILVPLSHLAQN
Assay: condition: only in HEK293/ΔGαs cells with B1 as the only ligand (10^-10 to 10^-4 M); FRET or BRET; as a1, HEK293/ΔGαs cells, B1 as the only ligand (10^-10 to 10^-4 M)

- binding: no binding
Substance: β-arrestin 2 N-terminally fused to the BRET acceptor yPET (from UniProt P32121 1-409)
